Assay results reported in PMC3311619.
Results are given in words; binding and its absence hold for the method and conditions named. Binding seen in cells or lysates may run through a third protein. Some binding calls cover weakened binding; strength is not graded here. One block for each substance: values may come before it.

Key:
[1] = molecular target: heterogeneous nuclear ribonucleoprotein (hnRNP) K, endogenous (human (endogenous in A375 and HPDE)) (UniProt P61978); experiment: co-IP; A375 cells treated with staurosporine for the indicated time, soluble and pellet fractions; 500 ug lysate immunoprecipitated with IgG or hnRNP K antibody, immunoblot with eIF3f and hnRNP K antibodies
[2] = molecular target: eukaryotic initiation factor 3 subunit f (eIF3f), endogenous (human (endogenous in A375 and HPDE)) (UniProt O00303); experiment: co-IP; HPDE cells treated with DMSO or etoposide (10 uM) for 24 hours; lysates immunoprecipitated with IgG or eIF3f antibody, immunoblot with eIF3f and hnRNP K antibodies
[3] = molecular target: GST-eIF3f, full length (recombinant) (human) (UniProt O00303); experiment: pull-down; GST pull-down: 35S-labeled in vitro transcribed and translated hnRNP K incubated with GST, full length GST-eIF3f or 4 deletion mutants; bound hnRNP K separated by SDS-PAGE, autoradiography; only the target purified

binding [1]: binds
Substance: eukaryotic initiation factor 3 subunit f (eIF3f), endogenous (from UniProt O00303 1-357)

binding [2]: binds
Substance: heterogeneous nuclear ribonucleoprotein (hnRNP) K, endogenous (from UniProt P61978 1-463)

binding [3]: binds
Substance: hnRNP K, in vitro transcribed and translated, 35S-labeled (from UniProt P61978 1-463)
